Assay results taken from paper PMC4567348.
No signal at the amounts used counts as a negative. For some of these results: At least one verdict was read from the data and is not stated in words by the source. For some of these results: Construct, isoform or probe ends are uncertain for at least one entry.

How the values were obtained:
[1] = target: GST-HbCBF1 (Hevea brasiliensis) (UniProt Q4KP31); test: competition EMSA; settings: 125-fold molar excess cold competitor vs COR15a probe; 10 mM Tris-HCl pH 7.5, 100 mM KCl, 10% glycerol, 1 mM DTT, 0.1% NP-40, 1 mM spermidine, 0.5 ug fish sperm DNA, 4 ug protein, 1 ng probe, 25 C; recombinant protein; residues 1-231; protein details: N-terminal GST (pGEX-6p-1); label: none (competitor)
GST = test: EMSA; settings: 10 mM Tris-HCl pH 7.5, 100 mM KCl, 10% glycerol, 1 mM DTT, 0.1% NP-40, 1 mM spermidine, 0.5 ug fish sperm DNA, 4 ug protein, 1 ng probe, 25 C; recombinant protein; protein details: GST

“TTTCAAGAATTCACTGCTTTTTT (double strand) [M1]”: no binding [1].
“TTTCATGGAATCACTGCTTTTTT (double strand) [M3]”: no binding [1].
“TTTCATGGCCGACCTGCTTTTTT (double strand) [COR15a]”: no binding (GST).
“TTTCATGGTATGTCTGCTTTTTT (double strand) [M2]”: no binding [1].
